From patent US20090105343A1, “Cancer Therapy And Medicaments Therefor” (The University of Birmingham, priority 2004, published 2009)

How the values were obtained:
Format in all cases: cell-based
RT-4 = assay: Proliferation assay (ATP bioluminescence), RT-4 bladder cancer cells; conditions: Homo sapiens; RT-4 cells, 96 h; read-out: Estimated dose required to inhibit bladder cancer cell proliferation by 50% (ED50)
Experimental: (§1) The action of individual agents alone and in combination was examined using a bioluminescent technique to measure changes in cellular ATP (ViaLight HS, LumiTech, Nottingham, U.K.) with previously optimised conditions according to the manufacturer's instructions (Rashid, S. F. et al. Supra). Briefly, cells were plated in 96 well white-walled tissue culture-treated plates (Fisher Scientific Ltd. Loughborough, U.K.) (cancer cell lines at 2×10^3 cells/well; PrEC at 3.5×10^3 cells/well). Growth media containing varying concentrations of SAHA, TSA, 1α,25(OH)2D3, nuclear receptor ligands were added to a final volume of 100 μl/well and plates were incubated for 96 h, with re-dosing after 48 h. After the incubation period, 100 μl of nucleotide releasing reagent was added to each well and cells were left for 30 minutes at room temperature. Liberated ATP was quantitated by adding 20 μl of ATP monitoring reagent (containing luciferin and luciferase) and measuring luminescence with a microplate luminometer (Berthold Detection Systems, Fisher Scientific Ltd.). ATP levels were recorded in relative luciferase units and growth inhibition was expressed as a percentage of control.

HT-1376 = assay: Proliferation assay (ATP bioluminescence), HT-1376 bladder cancer cells; conditions: Homo sapiens; HT-1376 cells, 96 h; read-out: Estimated dose required to inhibit bladder cancer cell proliferation by 50% (ED50)
Experimental: as §1

RT-112 = assay: Proliferation assay (ATP bioluminescence), RT-112 bladder cancer cells; conditions: Homo sapiens; RT-112 cells, 96 h; read-out: Estimated dose required to inhibit bladder cancer cell proliferation by 50% (ED50)
Experimental: as §1

EJ-28 = assay: Proliferation assay (ATP bioluminescence), EJ-28 bladder cancer cells; conditions: Homo sapiens; EJ-28 cells, 96 h; read-out: Estimated dose required to inhibit bladder cancer cell proliferation by 50% (ED50)
Experimental: as §1

[1] = tested on: prostate cancer cell lines; assay: Proliferation assay (ATP bioluminescence), prostate cancer cell lines, single agents and combinations
Experimental: as §1
The interactions of two compounds were assessed by measuring the mean of either the nuclear receptor ligand or the HDAC inhibitor acting alone or in combination. […]

- EC50 (RT-4): 2000 nM
- EC50 (HT-1376): 1000 nM
- EC50 (RT-112): 1000 nM
- EC50 (EJ-28): 2000 nM
- EC50 ([1]; common prostate cancer cell lines, SAHA alone, read-out: ED50, inhibition of proliferation): ~1000 nM
SMILES: O=C(CCCCCCC(=O)Nc1ccccc1)NO [SAHA, Suberoylanilide hydroxamic acid]
- inhibition at 0.5 µM ([1]; 0.5 μM): ~25%
